No constants are given. Whether binding was seen depends on the method and setting. In cells and extracts the contact can be indirect. Some entries that bind do so weakly or less than the wild type.
Biological target: GCN2 (UniProt Q9P2K8)
Experiment: co-IP; anti-GCN2 antibody covalently coupled to agarose beads (Pierce Co-Immunoprecipitation Kit), incubated overnight at 4 °C with pre-cleared lysates of HEK293T cells; immunoblot; cells with overexpression of TRIM56 and CD147 and MG132 for 12 h

Protein sequences, listed by entry. Tags and fused reporters are not part of them.
UniProt Q9P2K8: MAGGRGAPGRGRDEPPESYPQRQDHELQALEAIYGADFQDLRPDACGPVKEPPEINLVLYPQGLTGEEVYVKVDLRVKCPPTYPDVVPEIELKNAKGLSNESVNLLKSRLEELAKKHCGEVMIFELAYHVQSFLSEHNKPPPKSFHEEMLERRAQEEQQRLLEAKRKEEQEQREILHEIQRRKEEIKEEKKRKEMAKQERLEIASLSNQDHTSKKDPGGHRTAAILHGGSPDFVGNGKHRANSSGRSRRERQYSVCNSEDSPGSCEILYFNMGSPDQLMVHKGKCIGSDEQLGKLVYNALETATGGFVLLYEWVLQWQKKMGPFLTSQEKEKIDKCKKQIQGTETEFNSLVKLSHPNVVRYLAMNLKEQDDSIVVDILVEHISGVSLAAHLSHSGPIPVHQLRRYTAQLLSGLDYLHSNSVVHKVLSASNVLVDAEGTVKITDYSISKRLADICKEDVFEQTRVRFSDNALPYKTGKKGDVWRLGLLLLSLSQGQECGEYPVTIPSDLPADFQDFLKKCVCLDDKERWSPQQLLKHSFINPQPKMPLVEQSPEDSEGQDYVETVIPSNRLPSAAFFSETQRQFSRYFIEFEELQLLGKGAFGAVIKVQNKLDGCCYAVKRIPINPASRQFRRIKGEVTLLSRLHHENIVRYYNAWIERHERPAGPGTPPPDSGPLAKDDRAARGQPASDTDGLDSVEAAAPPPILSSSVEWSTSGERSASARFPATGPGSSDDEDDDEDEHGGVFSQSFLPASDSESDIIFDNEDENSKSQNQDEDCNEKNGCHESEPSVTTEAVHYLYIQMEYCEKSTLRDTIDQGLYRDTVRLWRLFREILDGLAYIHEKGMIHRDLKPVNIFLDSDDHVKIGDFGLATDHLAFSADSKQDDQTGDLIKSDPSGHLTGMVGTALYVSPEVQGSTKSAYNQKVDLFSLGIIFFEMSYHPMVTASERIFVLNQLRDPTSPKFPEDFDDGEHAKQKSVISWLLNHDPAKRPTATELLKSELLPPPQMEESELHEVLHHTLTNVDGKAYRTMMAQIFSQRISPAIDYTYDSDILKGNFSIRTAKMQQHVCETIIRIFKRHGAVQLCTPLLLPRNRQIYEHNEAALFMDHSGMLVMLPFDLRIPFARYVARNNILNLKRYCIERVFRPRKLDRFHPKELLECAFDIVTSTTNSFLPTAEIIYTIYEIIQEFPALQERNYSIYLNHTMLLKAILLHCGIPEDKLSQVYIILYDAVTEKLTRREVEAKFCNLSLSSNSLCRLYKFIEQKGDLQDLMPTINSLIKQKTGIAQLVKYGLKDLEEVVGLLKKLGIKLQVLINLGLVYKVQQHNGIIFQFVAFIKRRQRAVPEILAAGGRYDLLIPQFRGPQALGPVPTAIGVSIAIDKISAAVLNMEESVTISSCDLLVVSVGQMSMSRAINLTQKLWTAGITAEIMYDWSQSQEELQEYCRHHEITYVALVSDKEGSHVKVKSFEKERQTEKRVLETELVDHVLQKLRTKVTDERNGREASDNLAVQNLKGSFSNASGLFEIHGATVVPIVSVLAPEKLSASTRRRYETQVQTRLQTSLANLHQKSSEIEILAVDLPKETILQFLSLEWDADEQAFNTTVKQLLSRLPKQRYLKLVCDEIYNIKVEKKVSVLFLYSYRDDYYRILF

binding: binds
B1: TRIM56 (enzyme, UniProt Q9BRZ2 1-755)
chain: MVSHGSSPSLLEALSSDFLACKICLEQLRAPKTLPCLHTYCQDCLAQLADGGRVRCPECRETVPVPPEGVASFKTNFFVNGLLDLVKARACGDLRAGKPACALCPLVGGTSTGGPATARCLDCADDLCQACADGHRCTRQTHTHRVVDLVGYRAGWYDEEARERQAAQCPQHPGEALRFLCQPCSQLLCRECRLDPHLDHPCLPLAEAVRARRPGLEGLLAGVDNNLVELEAARRVEKEALARLREQAARVGTQVEEAAEGVLRALLAQKQEVLGQLRAHVEAAEEAARERLAELEGREQVARAAAAFARRVLSLGREAEILSLEGAIAQRLRQLQGCPWAPGPAPCLLPQLELHPGLLDKNCHLLRLSFEEQQPQKDGGKDGAGTQGGEESQSRREDEPKTERQGGVQPQAGDGAQTPKEEKAQTTREEGAQTLEEDRAQTPHEDGGPQPHRGGRPNKKKKFKGRLKSISREPSPALGPNLDGSGLLPRPIFYCSFPTRMPGDKRSPRITGLCPFGPREILVADEQNRALKRFSLNGDYKGTVPVPEGCSPCSVAALQSAVAFSASARLYLINPNGEVQWRRALSLSQASHAVAALPSGDRVAVSVAGHVEVYNMEGSLATRFIPGGKASRGLRALVFLTTSPQGHFVGSDWQQNSVVICDGLGQVVGEYKGPGLHGCQPGSVSVDKKGYIFLTLREVNKVVILDPKGSLLGDFLTAYHGLEKPRVTTMVDGRYLVVSLSNGTIHIFRVRSPDS

Reference: paper PMC13247162
